Assay results as given in PMC6449397.
Read-outs that look alike come from different tables or passages of the source. No constants are given. Whether binding was seen depends on the method and setting. Binding seen in cells or lysates may run through a third protein. Here binding means that the protein was enriched with, or labelled near, the bait; the list need not be complete. For part of these data: A no says only that the protein was not detected with the bait. For part of these data: Tags and fused reporters may be left off the sequences shown. One block for each molecule: values may come before it.

Protein sequences, listed by entry. Tags and fused reporters are not part of them.
UniProt Q9UQE7: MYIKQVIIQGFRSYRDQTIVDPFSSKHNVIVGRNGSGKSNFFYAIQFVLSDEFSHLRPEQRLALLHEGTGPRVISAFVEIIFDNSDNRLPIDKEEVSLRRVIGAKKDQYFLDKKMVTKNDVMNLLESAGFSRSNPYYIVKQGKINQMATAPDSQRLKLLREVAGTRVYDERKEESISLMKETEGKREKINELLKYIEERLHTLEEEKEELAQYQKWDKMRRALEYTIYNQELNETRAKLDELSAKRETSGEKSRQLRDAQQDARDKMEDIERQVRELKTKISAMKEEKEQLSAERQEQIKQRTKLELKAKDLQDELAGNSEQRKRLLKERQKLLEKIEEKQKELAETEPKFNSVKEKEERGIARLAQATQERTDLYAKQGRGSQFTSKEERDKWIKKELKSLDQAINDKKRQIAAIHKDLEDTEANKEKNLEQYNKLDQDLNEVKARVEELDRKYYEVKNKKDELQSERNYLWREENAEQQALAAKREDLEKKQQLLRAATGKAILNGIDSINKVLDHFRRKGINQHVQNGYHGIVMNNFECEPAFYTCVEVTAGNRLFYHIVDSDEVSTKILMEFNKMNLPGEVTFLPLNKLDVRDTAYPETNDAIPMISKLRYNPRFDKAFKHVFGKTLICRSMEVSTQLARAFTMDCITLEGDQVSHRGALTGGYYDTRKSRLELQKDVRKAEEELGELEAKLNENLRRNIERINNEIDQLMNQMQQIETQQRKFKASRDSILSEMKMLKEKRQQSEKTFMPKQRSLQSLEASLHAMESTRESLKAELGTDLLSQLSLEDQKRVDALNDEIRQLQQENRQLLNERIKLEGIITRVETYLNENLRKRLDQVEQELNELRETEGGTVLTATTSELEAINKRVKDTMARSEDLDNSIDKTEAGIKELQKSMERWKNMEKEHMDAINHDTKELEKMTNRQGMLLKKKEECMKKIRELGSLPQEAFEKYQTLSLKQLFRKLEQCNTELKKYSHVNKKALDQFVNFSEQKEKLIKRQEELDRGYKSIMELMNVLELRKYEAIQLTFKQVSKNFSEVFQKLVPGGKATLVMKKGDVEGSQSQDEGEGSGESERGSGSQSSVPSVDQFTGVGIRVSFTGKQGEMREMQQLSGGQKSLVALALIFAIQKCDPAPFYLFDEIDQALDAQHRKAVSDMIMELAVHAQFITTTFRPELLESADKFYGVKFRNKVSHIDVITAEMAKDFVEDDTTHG
UniProt Q567U6: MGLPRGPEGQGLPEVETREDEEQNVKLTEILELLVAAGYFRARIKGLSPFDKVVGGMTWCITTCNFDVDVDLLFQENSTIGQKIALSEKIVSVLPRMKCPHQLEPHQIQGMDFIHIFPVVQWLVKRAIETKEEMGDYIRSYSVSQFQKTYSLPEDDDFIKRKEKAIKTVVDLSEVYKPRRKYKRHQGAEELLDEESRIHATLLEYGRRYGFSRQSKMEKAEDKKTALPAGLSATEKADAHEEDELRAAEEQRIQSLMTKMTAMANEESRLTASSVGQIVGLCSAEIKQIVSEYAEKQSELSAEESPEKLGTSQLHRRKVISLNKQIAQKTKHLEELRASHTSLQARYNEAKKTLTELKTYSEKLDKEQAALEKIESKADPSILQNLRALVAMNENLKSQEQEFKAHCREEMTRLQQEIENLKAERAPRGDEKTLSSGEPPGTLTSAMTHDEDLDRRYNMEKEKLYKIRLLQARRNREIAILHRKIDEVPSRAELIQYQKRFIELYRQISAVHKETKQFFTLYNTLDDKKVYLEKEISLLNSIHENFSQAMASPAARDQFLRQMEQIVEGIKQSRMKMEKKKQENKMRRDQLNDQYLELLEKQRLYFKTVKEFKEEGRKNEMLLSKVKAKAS
UniProt O60566: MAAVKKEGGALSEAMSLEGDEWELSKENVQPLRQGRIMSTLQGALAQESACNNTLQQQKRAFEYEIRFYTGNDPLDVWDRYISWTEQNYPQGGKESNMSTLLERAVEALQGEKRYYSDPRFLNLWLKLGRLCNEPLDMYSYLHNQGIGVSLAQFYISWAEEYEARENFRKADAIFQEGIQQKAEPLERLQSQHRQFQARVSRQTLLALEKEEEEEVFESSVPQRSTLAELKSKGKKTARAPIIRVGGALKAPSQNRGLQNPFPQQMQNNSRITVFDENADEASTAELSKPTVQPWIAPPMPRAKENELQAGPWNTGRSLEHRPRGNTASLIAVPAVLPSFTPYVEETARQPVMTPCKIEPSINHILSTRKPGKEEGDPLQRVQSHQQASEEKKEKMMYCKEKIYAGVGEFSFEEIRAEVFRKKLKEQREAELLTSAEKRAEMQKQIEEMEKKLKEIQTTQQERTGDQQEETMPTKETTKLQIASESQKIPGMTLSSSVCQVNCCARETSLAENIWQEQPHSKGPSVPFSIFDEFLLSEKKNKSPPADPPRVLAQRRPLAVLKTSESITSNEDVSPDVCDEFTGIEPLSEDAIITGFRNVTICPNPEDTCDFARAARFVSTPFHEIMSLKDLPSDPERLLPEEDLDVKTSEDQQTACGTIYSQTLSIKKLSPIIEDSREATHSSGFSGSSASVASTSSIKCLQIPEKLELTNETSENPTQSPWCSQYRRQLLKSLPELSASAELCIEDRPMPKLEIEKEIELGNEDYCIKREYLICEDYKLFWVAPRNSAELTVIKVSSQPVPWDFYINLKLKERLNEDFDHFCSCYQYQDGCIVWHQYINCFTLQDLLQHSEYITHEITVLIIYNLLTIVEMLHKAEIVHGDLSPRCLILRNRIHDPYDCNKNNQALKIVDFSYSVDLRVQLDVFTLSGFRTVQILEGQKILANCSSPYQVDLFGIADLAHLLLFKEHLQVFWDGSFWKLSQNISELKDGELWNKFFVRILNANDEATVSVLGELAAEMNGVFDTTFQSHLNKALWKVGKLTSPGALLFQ
UniProt Q8N3U4: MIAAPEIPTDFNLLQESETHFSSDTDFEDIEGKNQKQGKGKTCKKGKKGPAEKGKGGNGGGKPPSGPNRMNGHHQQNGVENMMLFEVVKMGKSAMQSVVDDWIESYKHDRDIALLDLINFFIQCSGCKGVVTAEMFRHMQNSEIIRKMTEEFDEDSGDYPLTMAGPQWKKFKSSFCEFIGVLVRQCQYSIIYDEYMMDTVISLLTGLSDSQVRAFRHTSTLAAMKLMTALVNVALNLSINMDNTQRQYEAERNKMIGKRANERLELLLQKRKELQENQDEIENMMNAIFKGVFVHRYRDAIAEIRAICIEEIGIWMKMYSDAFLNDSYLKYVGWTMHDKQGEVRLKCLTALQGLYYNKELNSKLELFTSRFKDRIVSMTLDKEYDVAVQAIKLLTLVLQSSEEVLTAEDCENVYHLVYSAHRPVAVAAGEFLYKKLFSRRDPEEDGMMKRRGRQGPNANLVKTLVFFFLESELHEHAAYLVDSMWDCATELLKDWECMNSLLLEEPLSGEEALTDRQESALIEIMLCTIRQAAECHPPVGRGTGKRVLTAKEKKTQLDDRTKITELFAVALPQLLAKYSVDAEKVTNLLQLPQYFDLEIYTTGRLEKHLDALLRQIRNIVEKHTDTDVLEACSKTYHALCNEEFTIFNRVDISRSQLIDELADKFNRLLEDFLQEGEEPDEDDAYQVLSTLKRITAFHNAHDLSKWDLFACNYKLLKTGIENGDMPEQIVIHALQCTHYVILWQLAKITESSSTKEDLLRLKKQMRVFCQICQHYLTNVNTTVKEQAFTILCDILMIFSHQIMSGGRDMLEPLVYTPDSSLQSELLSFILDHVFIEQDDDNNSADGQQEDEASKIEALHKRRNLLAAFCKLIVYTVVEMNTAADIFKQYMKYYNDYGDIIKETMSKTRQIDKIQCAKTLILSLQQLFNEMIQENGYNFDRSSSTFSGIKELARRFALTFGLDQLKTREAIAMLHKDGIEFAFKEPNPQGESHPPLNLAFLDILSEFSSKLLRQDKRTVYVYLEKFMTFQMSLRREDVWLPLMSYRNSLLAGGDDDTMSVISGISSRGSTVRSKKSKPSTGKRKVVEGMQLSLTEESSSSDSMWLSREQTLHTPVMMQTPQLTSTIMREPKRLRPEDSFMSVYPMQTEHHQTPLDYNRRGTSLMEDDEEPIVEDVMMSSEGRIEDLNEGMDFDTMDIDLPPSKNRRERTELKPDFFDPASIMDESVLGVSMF
UniProt O60826: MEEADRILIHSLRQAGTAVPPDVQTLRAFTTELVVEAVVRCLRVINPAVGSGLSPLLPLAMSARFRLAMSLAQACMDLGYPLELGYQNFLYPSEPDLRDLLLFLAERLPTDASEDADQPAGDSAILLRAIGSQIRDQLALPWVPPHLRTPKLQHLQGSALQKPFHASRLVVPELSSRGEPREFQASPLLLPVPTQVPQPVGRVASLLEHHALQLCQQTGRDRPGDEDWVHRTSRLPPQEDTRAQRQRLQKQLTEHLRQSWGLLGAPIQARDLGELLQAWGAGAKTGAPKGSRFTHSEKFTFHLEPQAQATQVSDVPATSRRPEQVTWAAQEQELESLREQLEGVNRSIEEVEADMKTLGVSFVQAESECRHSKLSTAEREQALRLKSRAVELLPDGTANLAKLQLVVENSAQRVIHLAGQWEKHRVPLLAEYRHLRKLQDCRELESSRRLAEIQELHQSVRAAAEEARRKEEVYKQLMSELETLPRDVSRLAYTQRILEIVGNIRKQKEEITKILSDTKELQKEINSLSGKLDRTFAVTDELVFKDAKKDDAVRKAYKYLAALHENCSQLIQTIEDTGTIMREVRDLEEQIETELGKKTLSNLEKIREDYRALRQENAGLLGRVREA
UniProt O43684: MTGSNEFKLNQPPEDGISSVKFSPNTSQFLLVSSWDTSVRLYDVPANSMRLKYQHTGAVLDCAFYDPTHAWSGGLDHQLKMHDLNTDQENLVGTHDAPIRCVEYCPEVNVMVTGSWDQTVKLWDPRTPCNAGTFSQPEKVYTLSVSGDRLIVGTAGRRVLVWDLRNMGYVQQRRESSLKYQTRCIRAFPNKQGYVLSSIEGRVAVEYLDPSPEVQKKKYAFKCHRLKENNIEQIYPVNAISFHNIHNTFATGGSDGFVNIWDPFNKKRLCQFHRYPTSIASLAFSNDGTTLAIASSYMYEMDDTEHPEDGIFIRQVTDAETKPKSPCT

How the values were obtained:
[1] = molecular target: SMC3 (human (endogenous in HeLa)) (UniProt Q9UQE7); assay: affinity purification with mass spectrometry; on-chip AP-MS on the 48-reactor chip: HeLa Kyoto extract incubated 1 h at 4 °C with anti-SMC3 antibody (Abcam Ab9263), protein A/G beads; control normal rabbit IgG
SMC1A-GFP (human) [2] = molecular target: T1, SMC1A-GFP (human) (UniProt Q14683); assay: affinity purification with mass spectrometry; microcentrifuge tube-based GFP pull-down on GFP-Trap_A beads, 500 µg whole-cell extract, incubation 90 min at 4 °C in 300 mM NaCl buffer with ethidium bromide, washes with 1 M NaCl buffer; control wild-type HeLa Kyoto; label-free quantification
T1 sequence: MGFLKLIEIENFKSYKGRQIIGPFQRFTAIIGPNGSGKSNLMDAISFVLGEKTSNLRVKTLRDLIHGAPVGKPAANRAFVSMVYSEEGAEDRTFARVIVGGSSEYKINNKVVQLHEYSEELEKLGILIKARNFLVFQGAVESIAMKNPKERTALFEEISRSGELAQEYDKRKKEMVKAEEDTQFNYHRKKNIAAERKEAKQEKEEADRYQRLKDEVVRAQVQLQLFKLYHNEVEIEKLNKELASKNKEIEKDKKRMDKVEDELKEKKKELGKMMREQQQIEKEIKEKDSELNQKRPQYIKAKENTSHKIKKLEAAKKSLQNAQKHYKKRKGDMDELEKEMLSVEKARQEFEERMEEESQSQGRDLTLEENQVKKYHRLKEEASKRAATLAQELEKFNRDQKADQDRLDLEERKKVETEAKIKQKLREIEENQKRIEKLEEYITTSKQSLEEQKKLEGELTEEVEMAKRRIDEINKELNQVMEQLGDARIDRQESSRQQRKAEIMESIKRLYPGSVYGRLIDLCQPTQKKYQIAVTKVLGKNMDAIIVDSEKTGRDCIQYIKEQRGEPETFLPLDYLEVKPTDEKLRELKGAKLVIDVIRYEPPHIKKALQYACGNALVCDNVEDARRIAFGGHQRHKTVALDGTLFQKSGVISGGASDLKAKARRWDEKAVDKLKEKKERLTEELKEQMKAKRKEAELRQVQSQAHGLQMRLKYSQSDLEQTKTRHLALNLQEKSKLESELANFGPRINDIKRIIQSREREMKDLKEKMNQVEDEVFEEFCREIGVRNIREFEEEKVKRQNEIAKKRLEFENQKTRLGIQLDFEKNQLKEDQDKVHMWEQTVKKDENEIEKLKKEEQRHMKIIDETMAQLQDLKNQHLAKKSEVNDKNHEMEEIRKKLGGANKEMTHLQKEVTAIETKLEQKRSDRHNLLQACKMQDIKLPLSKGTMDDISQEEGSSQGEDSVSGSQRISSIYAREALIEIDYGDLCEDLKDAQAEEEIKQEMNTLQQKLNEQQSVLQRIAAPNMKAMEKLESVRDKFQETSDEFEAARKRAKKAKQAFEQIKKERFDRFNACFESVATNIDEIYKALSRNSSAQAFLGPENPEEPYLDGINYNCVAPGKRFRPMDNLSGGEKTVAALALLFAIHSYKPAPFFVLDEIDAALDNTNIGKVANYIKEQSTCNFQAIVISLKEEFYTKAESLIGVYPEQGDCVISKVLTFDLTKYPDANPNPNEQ

SMC1A-GFP (human) [3] = molecular target: T1, SMC1A-GFP (human); assay: affinity purification with mass spectrometry; on-chip AP-MS: microfluidic columns of Dynabeads M-270 epoxy coupled to anti-GFP nanobody Lag16-2K/R (24-reactor chip; SMC1A and CCDC93 also on the 48-reactor chip), 4 µg whole-cell extract or 12,000-25,000 cells per pull-down, loaded at 15 °C, washes with 1 M NaCl buffer and PBS, on-bead digestion; control wild-type or not induced cells; label-free quantification
CCDC93-GFP (human) [4] = molecular target: CCDC93-GFP (human) (UniProt Q567U6); assay: as above
LAP-BUBR1 = LAP-BUBR1 (UniProt O60566); assay: as above
SMC1A-GFP (human) [5] = molecular target: T1, SMC1A-GFP (human); assay: as above; remark: listed apart in the source
CCDC93-GFP (human) [6] = molecular target: CCDC93-GFP (human) (UniProt Q567U6); assay: as above; remark: listed apart in the source

Molecule: STAG2 (from UniProt Q8N3U4 1-1231)
binding [1]: binds
binding (SMC1A-GFP (human) [2]): binds
binding (SMC1A-GFP (human) [3]): binds

Molecule: CCDC22 (from UniProt O60826 1-627)
binding (CCDC93-GFP (human) [4]): binds

Molecule: BUB3 (from UniProt O43684 1-328)
binding (LAP-BUBR1): binds

Next, values leading:

binding [1]: binds
binding (SMC1A-GFP (human) [2]): binds
binding (SMC1A-GFP (human) [5]): binds
B1: STAG1 (protein, UniProt Q8WVM7 1-1258)
chain: MITSELPVLQDSTNETTAHSDAGSELEETEVKGKRKRGRPGRPPSTNKKPRKSPGEKSRIEAGIRGAGRGRANGHPQQNGEGEPVTLFEVVKLGKSAMQSVVDDWIESYKQDRDIALLDLINFFIQCSGCRGTVRIEMFRNMQNAEIIRKMTEEFDEDSGDYPLTMPGPQWKKFRSNFCEFIGVLIRQCQYSIIYDEYMMDTVISLLTGLSDSQVRAFRHTSTLAAMKLMTALVNVALNLSIHQDNTQRQYEAERNKMIGKRANERLELLLQKRKELQENQDEIENMMNSIFKGIFVHRYRDAIAEIRAICIEEIGVWMKMYSDAFLNDSYLKYVGWTLHDRQGEVRLKCLKALQSLYTNRELFPKLELFTNRFKDRIVSMTLDKEYDVAVEAIRLVTLILHGSEEALSNEDCENVYHLVYSAHRPVAVAAGEFLHKKLFSRHDPQAEEALAKRRGRNSPNGNLIRMLVLFFLESELHEHAAYLVDSLWESSQELLKDWECMTELLLEEPVQGEEAMSDRQESALIELMVCTIRQAAEAHPPVGRGTGKRVLTAKERKTQIDDRNKLTEHFIITLPMLLSKYSADAEKVANLLQIPQYFDLEIYSTGRMEKHLDALLKQIKFVVEKHVESDVLEACSKTYSILCSEEYTIQNRVDIARSQLIDEFVDRFNHSVEDLLQEGEEADDDDIYNVLSTLKRLTSFHNAHDLTKWDLFGNCYRLLKTGIEHGAMPEQIVVQALQCSHYSILWQLVKITDGSPSKEDLLVLRKTVKSFLAVCQQCLSNVNTPVKEQAFMLLCDLLMIFSHQLMTGGREGLQPLVFNPDTGLQSELLSFVMDHVFIDQDEENQSMEGDEEDEANKIEALHKRRNLLAAFSKLIIYDIVDMHAAADIFKHYMKYYNDYGDIIKETLSKTRQIDKIQCAKTLILSLQQLFNELVQEQGPNLDRTSAHVSGIKELARRFALTFGLDQIKTREAVATLHKDGIEFAFKYQNQKGQEYPPPNLAFLEVLSEFSSKLLRQDKKTVHSYLEKFLTEQMMERREDVWLPLISYRNSLVTGGEDDRMSVNSGSSSSKTSSVRNKKGRPPLHKKRVEDESLDNTWLNRTDTMIQTPGPLPAPQLTSTVLRENSRPMGDQIQEPESEHGSEPDFLHNPQMQISWLGQPKLEDLNRKDRTGMNYMKVRTGVRHAVRGLMEEDAEPIFEDVMMSSRSQLEDMNEEFEDTMVIDLPPSRNRRERAELRPDFFDSAAIIEDDSGFGMPMF

binding (CCDC93-GFP (human) [6]): no binding
B2: MYO1E (protein, UniProt Q12965 1-1108)
chain: MGSKGVYQYHWQSHNVKHSGVDDMVLLSKITENSIVENLKKRYMDDYIFTYIGSVLISVNPFKQMPYFGEKEIEMYQGAAQYENPPHIYALADNMYRNMIIDRENQCVIISGESGAGKTVAAKYIMSYISRVSGGGTKVQHVKDIILQSNPLLEAFGNAKTVRNNNSSRFGKYFEIQFSPGGEPDGGKISNFLLEKSRVVMRNPGERSFHIFYQLIEGASAEQKHSLGITSMDYYYYLSLSGSYKVDDIDDRREFQETLHAMNVIGIFAEEQTLVLQIVAGILHLGNISFKEVGNYAAVESEEFLAFPAYLLGINQDRLKEKLTSRQMDSKWGGKSESIHVTLNVEQACYTRDALAKALHARVFDFLVDSINKAMEKDHEEYNIGVLDIYGFEIFQKNGFEQFCINFVNEKLQQIFIELTLKAEQEEYVQEGIRWTPIEYFNNKIVCDLIENKVNPPGIMSILDDVCATMHAVGEGADQTLLQKLQMQIGSHEHFNSWNQGFIIHHYAGKVSYDMDGFCERNRDVLFMDLIELMQSSELPFIKSLFPENLQADKKGRPTTAGSKIKKQANDLVSTLMKCTPHYIRCIKPNETKKPRDWEESRVKHQVEYLGLKENIRVRRAGYAYRRIFQKFLQRYAILTKATWPSWQGEEKQGVLHLLQSVNMDSDQFQLGRSKVFIKAPESLFLLEEMRERKYDGYARVIQKSWRKFVARKKYVQMREEASDLLLNKKERRRNSINRNFIGDYIGMEEHPELQQFVGKREKIDFADTVTKYDRRFKGVKRDLLLTPKCLYLIGREKVKQGPDKGLVKEVLKRKIEIERILSVSLSTMQDDIFILHEQEYDSLLESVFKTEFLSLLAKRYEEKTQKQLPLKFSNTLELKLKKENWGPWSAGGSRQVQFHQGFGDLAVLKPSNKVLQVSIGPGLPKNSRPTRRNTTQNTGYSSGTQNANYPVRAAPPPPGYHQNGVIRNQYVPYPHAPGSQRSNQKSLYTSMARPPLPRQQSTSSDRVSQTPESLDFLKVPDQGAAGVRRQTTSRPPPAGGRPKPQPKPKPQVPQCKALYAYDAQDTDELSFNANDIIDIIKEDPSGWWTGRLRGKQGLFPNNYVTKI
